For 3 molecules, binding results are on record in PMC5430550 (Scientific Reports, 2017).

Experiment [1] deals with RlmH H129A, His6-tagged (E. coli) (UniProt P0A8I8). The experiment in a line: SEC; conventional size exclusion chromatography, elution profiles compared with the wild type; data not shown; both purified.
The target in experiment [2] is RlmH R142A, His6-tagged (E. coli) (UniProt P0A8I8). The experiment is described as above.
Experiment [3] addresses ribosomal large-subunit methyltransferase H (RlmH), wild type, His6-tagged (E. coli) (UniProt P0A8I8). Described as above.
Experiment [4] has the same target. The experiment in a line: crystal structure; RlmH crystallised with 2 mM SAM (2.3 Å) or sinefungin (2.1 Å); space group P21, 4 molecules (2 dimers) in the asymmetric unit; both purified.

Changes are numbered by the printed parent chain. In names and notes the source's numbering stands. No constants are given. Whether binding was seen depends on the method and setting. Some entries that bind do so weakly or less than the wild type. Where a sequence is shown, tags or fusion partners need not be part of it.

B1: RlmH H129A, His6-tagged (enzyme, UniProt P0A8I8 2-155)
chain: KLQLVAVGTKMPDWVQTGFTEYLRRFPKDMPFELIEIPAGKRGKNADIKRILDKEGEQMLAAAGKNRIVTLDIPGKPWDTPQLAAELERWKLDGRDVSLLIGGPEGLSPACKAAAEQSWSLSALTLPAPLVRVLVAESLYRAWSITTNHPYHRE
Consider B1, for which the binding entry in experiment [1] was “binds”.

B2: RlmH R142A, His6-tagged (enzyme, UniProt P0A8I8 2-155)
chain: B1 chain with A128H, R141A
Take B2: the binding entry in experiment [2] is given as “binds”.

B3: ribosomal large-subunit methyltransferase H (RlmH), wild type, His6-tagged (enzyme, E. coli, UniProt P0A8I8 2-155, looked up)
chain: B1 chain with A128H
notes: RlmH (YbeA) of E. coli, 155 amino acids; rlmH gene from ASKA clone JW0631 in pET24b; no cleavage of the tag is described; Limits 2-155 follow from 'first methionine is replaced' and '155 amino acids'; also called YbeA; WT; source: E. coli BLR(DE3), purified (nickel IMAC twice, SEC on Superdex75); not shown: His6, N-terminal, kept
Take B3: the binding entry in experiment [3] and in experiment [4] was “binds” throughout.
